# Results: PubChem BioAssay AID493014 (National Center for Advancing Translational Sciences (NCATS), 2011)
# In all, about 340,000 compounds went through this assay and about 170 (0.05%) were called active. Inconclusive means that the source gave no clear call. Such entries were picked first, then a sample of the others. The call rests on the fitted dose curve; in most records, active means well fitted inhibition curve with a large enough effect in the signal ratio, with a control signal flat (not every such curve was filed as active); inconclusive means small, poorly fitted or top-dose-only effect, or effect the other way, or a change in a side signal; inactive means flat fitted curve, though single readings scatter; the % refers to the signal ratio. A potency beside an inconclusive call is a rough fit, not a confirmed value.
# Test: qHTS Assay to Find Inhibitors of Chronic Active B-Cell Receptor Signaling
# Settings: ABC-DLBCL IkBa-CBG/CBR reporter, luminescence ratio (green luciferase fused to IkBa over red control in TMD8 lymphoma cells), 4 h; activity change, negative = inhibition: at 46.1 µM (top of the series)
# From the text: NIH Molecular Libraries Probe Production Network [MLPCN] NIH Chemical Genomics Center [NCGC] MLPCN Grant: 1 R03 DA031086-01A1 PI Name: Dr. R. Eric Davis NCGC Assay Overview: Diffuse large B-cell lymphoma (DLBCL) is the most common category of non-Hodgkin lymphoma, with ~20,000 new cases per year in the United States. DLBCL should be regarded as a collection of different neoplasms. Microarray gene expression analysis has defined two principal types of DLBCL, named for their similarity to normal B cell stages or activation states: a germinal center B-cell (GCB) type, and an activated B-cell (ABC) type. In ABC-DLBCL, a constitutive high-level activity of the NF-kappaB family of transcription factors has been observed (1) and NF-kappaB target genes are more highly expressed in ABC primary tumors than in GCB tumors. Functional studies have shown a constitutive high-level activity of the IkappaB (inhibitor of kappa-B) kinase (IKK) complex. […] Further analysis of DLBCL primary tumors for NF-kappaB target gene expression imply that although CARD11 is required for constitutive IKK activity in all ABC-DLBCL lines, mutations in CARD11 may be the root cause of IKK activation only in lines or tumors with such mutations. In other words, CARD11 mutations may explain NF-kappaB activation in only 10% of ABC-DLBCL cases. […] This process has been termed 'chronic active BCR signaling' (CABS). The goal of this screen is to find small-molecule inhibitors of the CABS pathway found in ABC-DLBCL lines using a cell-based assay that measures IkappaBalpa stability, which has already been extensively validated in the OCI-Ly3 line (PubChem AID:445; REF: 4). […] The assay uses green (CBG68) and red (CBR) emitting beetle luciferases [Chroma-GloTM developed by Promega Corp.] where the green luciferase is fused to IkappaBalpha and the red luciferase is present in its native state. Both luciferase genes are stably present in the TMD8 human ABC DLBCL cell line, but their expression is under the control of tetracycline-inducible promoters. Following the addition of doxycycline to induce expression of the luciferases, the green luminescence in control cultures rises only slowly because the CBG fusion partner IkappaBalpha is targeted by IKK activity for rapid degradation. In contrast, green luminescence rises rapidly in the presence of proteasome inhibitors or IKK inhibitors. The rise in red luminescence of CBR is not affected by proteasome or IKK inhibitors, and serves as normalization for cell number and nonspecific effects. Compounds were screened as a concentration-titration series that ranged from 46 uM to 3 nM.
# NCGC Assay Protocol Summary: Cells were seeded in 1536-well plates at 5000 cells/4uL in IMDM medium containing 0.5% FBS, w/o phenol red, 1% penicillin/streptomycin. Then, 23 nL of compounds or DMSO were delivered to each well using a pin tool. One uL 20ng/ml doxycycline was then dispensed into white solid 1536-well plates and the plates were incubated at 37C/5% C02 in a cell incubator for 4 hrs. Then 4 uL luminescent substrate mix (in-house prepared: 150 mM Tris-Cl, pH 7.6, 3 mM MgCl2, 1% Triton X-100, 5 mM DTT, 0.2 mM CoA, 0.15 mM ATP, 5 mM D-luciferin, final concentrations) was added to each well. The plate was incubated at r.t. for 10-15 min. The plates were measured on a ViewLux plate reader for green luminescence (540/20 nm filter) and red luminescence (618/8 nm filter). The green and red luminescent signals were corrected for red and green luminescence filter overlap using previously determined filter calibration constants (determined using the procedure outlined in the Promega Technical Manual; REF 4). The %Activity was determined from the ratio of corrected green/red luminescent values. MG132 were used as control. […] Red luminescent %Activity was normalized to the difference between red luminesence in basal cells (0%Activity) and zero luminescence (-100% Activity). […]
# Potency means the concentration at half of the fitted maximal effect.
SMILES,Potency,"activity change, negative = inhibition"
O=C(Nc1cnc2ccccn2c1=O)c1ccc(F)cc1,"inconclusive: 20.6 µM [falling, partial curve]",
COc1ccc(-n2nc3c(c2NC(=O)c2ccc(N4C(=O)CCC4=O)cc2)CSC3)cc1,,inconclusive: 2.8%
COc1ccccc1OCC(=O)Nc1ccc(S(=O)(=O)N2CCCCCC2)cc1,"inconclusive: 28.2 µM [falling, partial curve, poor fit]",
COc1cccc(C2CC(C(F)(F)F)n3ncc(C(=O)Nc4c(C)n(C)n(-c5ccccc5)c4=O)c3N2)c1 (stereo not given),"inconclusive: 20.6 µM [falling, single point]",
COc1ccc2nc(SCC(=O)NC3CC3)c(C#N)cc2c1,,inactive
CCC(=O)N1CCN(c2ccccc2NC(=O)COc2ccc(C(C)C)cc2)CC1,,inconclusive: -2.03%
COC(=O)/C(=C\Nc1ccccc1)NC(=O)c1ccc(Cl)cc1Cl,,inconclusive: 7.68%
Cc1ccc(C)c(C(=O)C(C)OC(=O)c2cccn2C)c1 (stereo not given),,inconclusive: 0.131%
NS(=O)(=O)c1ccc(CCNC(=O)C(=O)c2cn(CC(=O)N3CCOCC3)c3ccccc23)cc1,,inactive
Cc1ccc(O)c(N=CC2=C(O)c3ccccc3C2=O)c1,,inconclusive: -18.8%
CC(C)(C)c1ccc(OCc2cnc(Cl)s2)cc1,,inconclusive: 11.5%
Cc1ccccc1C(=O)NC(=S)NCC1CCCO1 (stereo not given),,inconclusive: -11.8%
COc1ccc(F)cc1C1=CC(=O)C[C@H](c2ccc3c(c2)OCO3)C1,,inactive
Cc1ccccc1OCCSc1nc2ccccc2n1CCC(=O)O,,inactive
CCOc1ccc(C(O)Cn2c(=N)n(CCN3CCCCC3)c3ccccc32)cc1 (stereo not given),"inconclusive: 32.6 µM [falling, partial curve, poor fit]",
Fc1ccc(NC(=S)NC2CCN(Cc3ccccc3)CC2)cc1,,inactive
COc1cccc(/C=N/NC(=O)c2ccoc2C)c1O,,inconclusive: 294%
O=C(NCc1ccc2c(c1)OCO2)C(=O)NCC1CCCO1 (stereo not given),"inconclusive: 5.62 µM [falling, single point]",
COc1cccc(-c2nnc(NC(=O)c3ccccc3Br)o2)c1,"inconclusive: 22.4 µM [falling, partial curve]",
COc1ccccc1CNc1cc(C)ccn1,,inactive
COCC(=O)N1CCCC(CNS(=O)(=O)c2ccc(OC)cc2)C1 (stereo not given),,inconclusive: 16.2%
COc1cc(C(=O)NCc2cn3cccc(C)c3n2)cc(OC)c1OC,,inconclusive: 25.8%
CN1CCN(C2CCCCC2NS(=O)(=O)c2ccccc2)CC1 (stereo not given),,inactive
Cc1cccc(OCC(=O)N(Cc2ccco2)C2CCS(=O)(=O)C2)c1C (stereo not given),"inconclusive: 12.6 µM [falling, partial curve]",
S=C1SCN(CC2CC2)CN1CC1CC1,,inconclusive: 0.211%
NC(=O)NC(=O)COC(=O)CC12CC3CC(CC(C3)C1)C2,,inactive
C=CC[n+]1c(/C=C2\C=Cc3cc(C)ccc3N2CC)ccc2ccccc21,,inconclusive: 22.8%

# In a second layout: four of the compounds above
SMILES	Potency	activity change, negative = inhibition
Fc1ccc(NC(=S)NC2CCN(Cc3ccccc3)CC2)cc1		inactive
O=C(NCc1ccc2c(c1)OCO2)C(=O)NCC1CCCO1 (stereo not given)	inconclusive: 5.62 µM [falling, single point]	
COc1ccccc1CNc1cc(C)ccn1		inactive
S=C1SCN(CC2CC2)CN1CC1CC1		inconclusive: 0.211%

# (more compounds)

SMILES,Potency,"activity change, negative = inhibition"
O=C(COc1cc(O)c2c(=O)cc(-c3ccccc3)oc2c1)c1ccc(F)cc1,,inconclusive: 6.76%
COc1cccc(-c2onc3ccc(C4(C)OCCO4)cc23)c1,,inactive
C=C1[C@@H](O)[C@@H]2O[C@]3(CC[C@H](/C=C/[C@@H](C)[C@@H]4CC(C)=CC5(O[C@H](C[C@@](C)(O)C(=O)OC)CC[C@H]5O)O4)O3)CC[C@H]2O[C@@H]1[C@@H](O)C[C@H](C)[C@H]1OC2(CCCCO2)CC[C@H]1C (stereo not given in full),,inactive
Cc1ccsc1C(=O)NCc1ccc(F)cc1,"inconclusive: 22.4 µM [falling, single point]",
Cc1nc2sccn2c(=O)c1CCN1CCC(=C(c2ccc(F)cc2)c2ccc(F)cc2)CC1,"inconclusive: 3.98 µM [falling, partial curve, poor fit]",
O=C(NCc1ccc(Cl)cc1)C1CCN(S(=O)(=O)c2ccc(N3CCCC3=O)cc2)CC1,,inactive
COc1cccc(C(=O)OCC(=O)NCC2CCCO2)c1 (stereo not given),,inactive
Cc1c(C)c2c(OCC(=O)N[C@@H](C(=O)O)c3ccccc3)cc3c(c2oc1=O)CCC(C)(C)O3,,inconclusive: 7.89%
CC(=O)c1ccc(OC(=O)N(c2ccccc2)c2ccccc2)cc1,"inconclusive: 18.4 µM [falling, single point]",
COc1cc2c(cc1OC)C(c1ccc(N(C)C)cc1)CC(=O)N2 (stereo not given),,inactive
COc1ccc(NCc2nc3ccccc3n2CCOc2ccccc2)cc1,"inconclusive: 23.1 µM [falling, partial curve]",
Cc1ccccc1S(=O)Cc1ccc(C(=O)N2CCN(C(=O)c3ccco3)CC2)o1 (stereo not given),,inconclusive: -10.1%
COc1ccc(CC(=O)NC2CCN(Cc3nnnn3C(C)(C)C)CC2)cc1OC,,inactive
COc1ccc(Cl)cc1NC(=O)COc1cccc(-n2cnnn2)c1,,inconclusive: 13.7%
CC(C)CN1C(=O)C(=Nc2cccnc2)c2ccccc21,,inconclusive: 2.71%
Cc1occc1C(=O)Nc1ccc2c(c1)CCC2,,inconclusive: 1.4%
Cc1ccc(N(CC(=O)NCC2CCCO2)C(=O)CCC(=O)Nc2nccs2)cc1 (stereo not given),,inconclusive: -10.5%
CC(C)(C)OC(=O)C[C@@H]1C/C=C\C[C@@H](CC(=O)N[C@@H](CO)Cc2ccccc2)C(=O)N2CCC[C@@H]2COC1=O,,inconclusive: 0.901%
O=C(O)C/C(=C\c1ccc(N2CCOCC2)c([N+](=O)[O-])c1)c1nc2ccccc2s1,,inconclusive: 26.6%
CCOC(=O)N1CCN(C(=O)c2ccc(C)c(S(=O)(=O)N3CCCCC3)c2)CC1,,inconclusive: -6.86%
Cc1ccc(OCCSc2nc3ccccc3n2CC(=O)O)c(C(C)C)c1,,inconclusive: 8.61%
COC(=O)c1cccc(NC(=O)Nc2ccc(Cl)cc2Cl)c1,,inactive
Cc1cc(S(=O)(=O)N2CCN=C2c2ccccc2)c(C)cc1Cl,,inconclusive: -3.35%
CCOC(=O)c1cnn(-c2ccc(NS(=O)(=O)c3ccc(Cl)cc3)cc2)c1C(F)(F)F,,inconclusive: 0.0182%
Clc1ccc(SCCn2ccnc2)cc1,,inconclusive: 5.02%
CC(C)c1nc(SCC(=O)N2CC(=O)Nc3ccccc32)c2ccccc2n1,,inconclusive: -7.1%
COc1ccccc1C(=O)Oc1ccccc1C(=O)Nc1ccccc1,"inconclusive: 35.5 µM [rising, single point]",

SMILES,Potency,"activity change, negative = inhibition"
CS(=O)(=O)N(CC(=O)NC1CCCC1)c1ccc2c(c1)OCCO2,,inconclusive: 5.04%
O=c1c2nccnc2[nH]c(=S)n1Cc1ccccc1Cl,,inactive
COc1ccccc1OCc1nn[nH]n1,,inactive
CN(C)S(=O)(=O)c1c(Cl)cccc1Cl,,inconclusive: 0.0698%
COc1ccc(C(=O)N/C(=C\c2cn(C)c3ccccc23)C(=O)NCCCn2ccnc2)cc1,,inactive
O=C(Nc1nc2ccc([N+](=O)[O-])cc2s1)c1ccco1,"inconclusive: 0.631 µM [rising, full curve, poor fit]",
O=S(=O)(Nc1cccc2cccnc12)c1ccccc1,"inconclusive: 7.08 µM [falling, full curve, poor fit]",
Nc1c(N=Nc2ccccc2F)c(=O)[nH]n1-c1ccccc1,"inconclusive: 12.6 µM [falling, partial curve]",
O=C(Nc1ccc2c(c1)CCCN2C(=O)c1cccs1)c1c(F)cccc1F,,inconclusive: 0.446%
COc1ccc(-c2noc(CSc3nnc(-c4ccncc4)n3-c3ccc(F)cc3)n2)cc1OC,,inconclusive: -8.14%
CC1=C/C(=N\NC(=S)Nc2cccnc2)CC(C)(C)C1,"inconclusive: 3.55 µM [falling, single point]",
Cc1ccc(NC(=O)c2ccc3c(c2)C(=O)N(c2cc(C)ccc2C)C3=O)nc1,,inconclusive: 6.67%
CCOC(=O)C(NCc1ccccc1)(NC(=O)c1ccccc1)C(F)(F)F (stereo not given),"inconclusive: 29.1 µM [falling, single point]",
COCCNC(=S)N1CCN(c2nc(-c3ccc(F)cc3)cs2)CC1,,inconclusive: -19.7%
O=C(CCCc1ccccc1)Nc1nnc(C(F)(F)F)s1,,inconclusive: -6.99%
Cc1oc(S(=O)(=O)N2CCCCC2)cc1NC(=O)Nc1ccccc1,,inactive
CCOC(=O)c1ccc(NC(=S)NCC(O)c2ccccc2)cc1 (stereo not given),,inconclusive: -10.4%
Cc1ccc(N2CC(NC(=O)c3ccc(S(=O)(=O)N4CCCC4)cc3)CC2=O)cc1 (stereo not given),,inactive
COc1ccc(-c2c(C)c3cc(OC(=O)N4CCOCC4)ccc3oc2=O)cc1,"inconclusive: 2.24 µM [falling, partial curve, poor fit]",
O=C(Nc1nc2ccc(Cl)cc2s1)c1ccc(Br)o1,"inconclusive: 2.06 µM [falling, partial curve]",
Cc1[nH]n(-c2ccccc2)c(=O)c1N=Nc1nccs1,"inconclusive: 0.58 µM [rising, full curve, poor fit]",
Cc1ccc(C(=O)CC(=O)c2cc(Cl)ccc2O)cc1,"inconclusive: 1.64 µM [rising, partial curve, poor fit]",
Cc1ccc2occ(/C=N/NC(=O)c3ccccc3Br)c(=O)c2c1,,inconclusive: -5.2%
O=C(/C=C/c1ccccc1)NNC(=O)c1ccco1,"inconclusive: 11.2 µM [falling, partial curve]",
O=C(NC1(C(F)(F)F)N=C(c2ccccc2)NC1=O)c1ccc(Cl)cc1Cl (stereo not given),,inconclusive: 6.64%
CCCCn1cc2c(c1-c1cccc(C)c1)c(=O)n(C)c(=O)n2C,,inactive
